Results deposited as PubChem BioAssay AID1259405 (NCATS, 2018)

- Aim: 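Knock-downs that lift recombinant protein yield in hamster ovary cells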 (primary screen)
- Cells: Chinese hamster CHO-K1 ovary cells with stable secreted eGFP expression
- Knock-down reagent: single siRNA against mouse genes, 0.8 pmol siRNA per well (2 µl of 400 nM stock)
- Timing: 3 days
- Read-out: 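Percent of the per-plate non-targeting control median for intracellular GFP per well by laser scanning cytometry and for cell viability by ATP luminescence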
- Scale: GFP, % of control: higher = more GFP per well, higher productivity; viability (ATP), % of control: higher = more viable cells (more ATP)
- Active means: 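Called active when intracellular GFP, relative to negative control, is at or above 120%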
Shown is one part, drawn at random, of about 50,000 deposited reagents. About 4,000 of them (8%) count as active. 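Mouse siRNA library applied to hamster cells; one well for each siRNA.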 Entries without a mark were called inactive. The numbers tell different reagents against one gene apart.

Target gene,reagent no.,"GFP, % of control","viability (ATP), % of control"
"Rtcb (RNA 2',3'-cyclic phosphate and 5'-OH ligase)",1,68.7,68.2
"Rtcb (RNA 2',3'-cyclic phosphate and 5'-OH ligase)",2,34.1,49.3
"Rtcb (RNA 2',3'-cyclic phosphate and 5'-OH ligase)",3,74.5,78.3
"Serpinb9b (serine (or cysteine) peptidase inhibitor, clade B, member 9b)",1,84.8,87.1
"Serpinb9b (serine (or cysteine) peptidase inhibitor, clade B, member 9b)",2,118,67
"Serpinb9b (serine (or cysteine) peptidase inhibitor, clade B, member 9b)",3,113,102
Or5p73 (olfactory receptor family 5 subfamily P member 73),1,47.5,34.7
Or5p73 (olfactory receptor family 5 subfamily P member 73),2,66.6,95.1
Or5p73 (olfactory receptor family 5 subfamily P member 73),3,50.9,41.7
Ezh2 (enhancer of zeste 2 polycomb repressive complex 2 subunit),1,64.5,69.5
Ezh2 (enhancer of zeste 2 polycomb repressive complex 2 subunit),2,74.3,80
Ezh2 (enhancer of zeste 2 polycomb repressive complex 2 subunit),3,33.4,65.4
Pde10a (phosphodiesterase 10A),1,54,55
Pde10a (phosphodiesterase 10A),2,53.4,56
Pde10a (phosphodiesterase 10A),3,105,77.5
Ints6 (integrator complex subunit 6),1,88.4,69.5
Ints6 (integrator complex subunit 6),2,64.1,60.3
Ints6 (integrator complex subunit 6),3,95.1,104
Trmt10a (tRNA methyltransferase 10A),1,49.7,70.8
Trmt10a (tRNA methyltransferase 10A),2,60.3,57.9
Trmt10a (tRNA methyltransferase 10A),3,70,40.3
Lgalsl (galectin like),1,86.6,74
Lgalsl (galectin like),2,57.8,58.1
Lgalsl (galectin like),3,96.5,65.8
Ddx39a (DEAD box helicase 39a),1,78.8,58.5
Ddx39a (DEAD box helicase 39a),2,91,67.6
Ddx39a (DEAD box helicase 39a),3,137 (active),116
Tmem200a (transmembrane protein 200A),1,44.5,76
Tmem200a (transmembrane protein 200A),2,58.9,77.4
Tmem200a (transmembrane protein 200A),3,119,123
"Supt6 (SPT6, histone chaperone and transcription elongation factor)",1,85.9,104
"Supt6 (SPT6, histone chaperone and transcription elongation factor)",2,63.4,74.4
"Supt6 (SPT6, histone chaperone and transcription elongation factor)",3,37.3,36.4
"Hbb-bh1 (hemoglobin Z, beta-like embryonic chain)",1,116,128
"Hbb-bh1 (hemoglobin Z, beta-like embryonic chain)",2,136 (active),114
"Hbb-bh1 (hemoglobin Z, beta-like embryonic chain)",3,70.7,45.4
Emc8 (ER membrane protein complex subunit 8),1,36.9,24.3
Emc8 (ER membrane protein complex subunit 8),2,23.9,29.2
Emc8 (ER membrane protein complex subunit 8),3,52.6,72.9
"Atp2a1 (ATPase, Ca++ transporting, cardiac muscle, fast twitch 1)",1,19.6,23.6
"Atp2a1 (ATPase, Ca++ transporting, cardiac muscle, fast twitch 1)",2,50.2,70.6
"Atp2a1 (ATPase, Ca++ transporting, cardiac muscle, fast twitch 1)",3,46.8,57.1
Cnnm1 (cyclin M1),1,57.3,88.6
Cnnm1 (cyclin M1),2,128 (active),104
Cnnm1 (cyclin M1),3,121 (active),126
Slc9b2,1,59.1,65
Slc9b2,2,64.6,72.8
Slc9b2,3,102,92.5
Or14c40 (olfactory receptor family 14 subfamily C member 40),1,150 (active),96.5
Or14c40 (olfactory receptor family 14 subfamily C member 40),2,92.4,55.3
Or14c40 (olfactory receptor family 14 subfamily C member 40),3,69.1,79.7
Fads3 (fatty acid desaturase 3),1,60.9,61.1
Fads3 (fatty acid desaturase 3),2,80.7,85.9
Fads3 (fatty acid desaturase 3),3,88.2,84.3
Pacc1 (proton activated chloride channel 1),1,70,85.8
Pacc1 (proton activated chloride channel 1),2,61.2,78.7
Pacc1 (proton activated chloride channel 1),3,87,101
Tm6sf1 (transmembrane 6 superfamily member 1),1,99.7,68.1
Tm6sf1 (transmembrane 6 superfamily member 1),2,54.8,50.4
Tm6sf1 (transmembrane 6 superfamily member 1),3,81.5,56.9
Tktl1 (transketolase-like 1),1,114,106
Tktl1 (transketolase-like 1),2,77.8,132
Tktl1 (transketolase-like 1),3,87,117
Ice2 (interactor of little elongation complex ELL subunit 2),1,89.2,79.5
Ice2 (interactor of little elongation complex ELL subunit 2),2,107,57.1
Ice2 (interactor of little elongation complex ELL subunit 2),3,103,49
Pnma2 (paraneoplastic antigen MA2),1,112,71.9
Pnma2 (paraneoplastic antigen MA2),2,69.3,76.3
Pnma2 (paraneoplastic antigen MA2),3,79.1,80.6
Mphosph8 (M-phase phosphoprotein 8),1,108,102
Mphosph8 (M-phase phosphoprotein 8),2,62.8,49.2
Mphosph8 (M-phase phosphoprotein 8),3,64.9,70
"Rexo4 (REX4, 3'-5' exonuclease)",1,78.1,41
"Rexo4 (REX4, 3'-5' exonuclease)",2,114,97.3
"Rexo4 (REX4, 3'-5' exonuclease)",3,71.5,78.6
Wsb1 (WD repeat and SOCS box-containing 1),1,63,50.4
Wsb1 (WD repeat and SOCS box-containing 1),2,101,68.5
Wsb1 (WD repeat and SOCS box-containing 1),3,108,94.1
"Adar (adenosine deaminase, RNA-specific)",1,43.2,40.1
"Adar (adenosine deaminase, RNA-specific)",2,52.7,89.6
"Adar (adenosine deaminase, RNA-specific)",3,57.6,48.4
Vil1 (villin 1),1,93.8,95.1
Vil1 (villin 1),2,99.9,110
Pvt1 (Pvt1 oncogene),1,88.2,65.1
Pvt1 (Pvt1 oncogene),2,82.1,58
Pvt1 (Pvt1 oncogene),3,101,71.3
Dlg1 (discs large MAGUK scaffold protein 1),1,106,82.5
Dlg1 (discs large MAGUK scaffold protein 1),2,97.7,75.6
Rpl14 (ribosomal protein L14),1,114,115
Rpl14 (ribosomal protein L14),2,73.9,41.9
Rpl14 (ribosomal protein L14),3,93.5,78.2
Gldc (glycine decarboxylase),1,82.3,65.4
Gldc (glycine decarboxylase),2,61.6,64.2
Gldc (glycine decarboxylase),3,101,64.8
Clvs2 (clavesin 2),1,117,66.5
Clvs2 (clavesin 2),2,88.4,66.2
Clvs2 (clavesin 2),3,72.4,81.4
1700006J14Rik (RIKEN cDNA 1700006J14 gene),1,86.8,102
1700006J14Rik (RIKEN cDNA 1700006J14 gene),2,80,80
1700006J14Rik (RIKEN cDNA 1700006J14 gene),3,104,50.2
Ucp3,1,80.1,73.4
Ucp3,2,129 (active),84.3
Ucp3,3,86.6,74.6
Spc24,1,64.4,88.8
Spc24,2,103,57
Spc24,3,62.2,78.3
Slc34a3,1,103,67.9
Slc34a3,2,50.4,37.4
Slc34a3,3,56.7,85.2
